We go through one substance from publication PMC3577733.

Sequences of proteins named here, by UniProt entry; tags and fusion partners are left off.
UniProt P49597: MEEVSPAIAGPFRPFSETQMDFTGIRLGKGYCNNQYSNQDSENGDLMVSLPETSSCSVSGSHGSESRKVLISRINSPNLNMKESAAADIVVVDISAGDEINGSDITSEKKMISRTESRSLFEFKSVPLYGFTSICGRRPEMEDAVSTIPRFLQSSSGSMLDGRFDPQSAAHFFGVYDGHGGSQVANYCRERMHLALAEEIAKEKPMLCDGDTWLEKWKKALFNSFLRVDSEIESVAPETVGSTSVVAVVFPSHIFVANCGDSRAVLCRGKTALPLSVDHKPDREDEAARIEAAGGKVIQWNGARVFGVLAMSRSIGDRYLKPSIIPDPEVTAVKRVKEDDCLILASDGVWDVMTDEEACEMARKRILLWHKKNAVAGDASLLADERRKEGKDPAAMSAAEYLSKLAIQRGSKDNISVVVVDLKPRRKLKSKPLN

No constants are given. Whether binding was seen depends on the method and setting. Some entries that bind do so weakly or less than the wild type. Where a sequence is shown, tags or fusion partners need not be part of it.

Experiment [1] has as its target T1, AtPYL9 (Arabidopsis PYL9), yeast two-hybrid fusion (Arabidopsis thaliana) (UniProt Q84MC7).
T1 sequence: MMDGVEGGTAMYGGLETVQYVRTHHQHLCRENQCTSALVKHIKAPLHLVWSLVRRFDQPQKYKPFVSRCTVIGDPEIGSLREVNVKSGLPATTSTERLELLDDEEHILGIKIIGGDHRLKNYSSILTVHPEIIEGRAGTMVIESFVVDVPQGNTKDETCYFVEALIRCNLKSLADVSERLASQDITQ
Description: two-hybrid; yeast AH109, BD (pDEST32) and AD (pDEST22) constructs co-transformed; growth on SD/-T-L-H and SD/-T-L-H-A without ABA.

Experiment [2] has as its target T1, AtPYL9 (Arabidopsis PYL9), yeast two-hybrid fusion (Arabidopsis thaliana). Kind of experiment: two-hybrid; yeast AH109, BD (pDEST32) and AD (pDEST22) constructs co-transformed; growth on SD/-T-L-H-A supplemented with 10 µM ABA.

On to “AtABI1 (Arabidopsis ABI1, AT4G26080), yeast two-hybrid fusion (from UniProt P49597 1-434) (enzyme)”, for which the binding result in experiment [1] and in experiment [2] was “binds” each time.
